Test results taken from article PMC7819943, “Rice protein-binding microarrays: a tool to detect cis-acting elements near promoter regions in rice”.
The other results are listed elsewhere or left out.

Protein sequences, listed by entry. Tags and fused reporters are not part of them.
UniProt Q0JBA9, entry or part of it: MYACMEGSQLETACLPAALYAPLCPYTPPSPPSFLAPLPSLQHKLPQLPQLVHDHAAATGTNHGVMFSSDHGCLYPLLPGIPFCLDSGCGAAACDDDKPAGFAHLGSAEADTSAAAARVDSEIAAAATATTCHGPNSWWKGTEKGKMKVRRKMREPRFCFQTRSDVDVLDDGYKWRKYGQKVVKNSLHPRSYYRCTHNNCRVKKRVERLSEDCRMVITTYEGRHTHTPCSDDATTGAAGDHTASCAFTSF

Biological target: OsWRKY34 (Oryza sativa, UniProt Q0JBA9 1-250)
Assay: protein-binding microarray (RPBM); PBS, 2% BSA, 51.3 ng/ul salmon testes DNA, 50 uM zinc acetate, 200 nM TF, 25 C, 1 h; high values mean tight binding
Details: protein: recombinant; tags: N-terminal polyhistidine and DsRed monomer fusion (pET32a); label: CyDye5-dUTP incorporated in the synthesized complementary strand; 3' TTTTT single-stranded linker to array surface; dsDNA, one strand shown
In short: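 Ni–NTA purification followed expression in E. coli BL21-CodonPlus of transcription factors fused N-terminally to a polyhistidine tag and DsRed. At 200 nM in PBS with 2% BSA, salmon testes DNA and 50 µM zinc acetate, the protein was incubated for 1 h at 25 °C with a custom Agilent array that had been primer-extended with Cy5-dUTP and blocked with 2% BSA. After washing, the array was read on an Axon 4000B scanner. The binding signal is per-feature fluorescence intensity in arbitrary units.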

Sequence | binding signal
GTCTGTACCGTCCCCGCGCCGACTCGAGGGCAGAGAGCTCCGGAGTCACCTAGTGCAG | 8330 fluorescence intensity (a.u.)
CATACCCATATAATTGACTTGTAGCATTTATAGTTTTGTACGGAGTCACCTAGTGCAG | 10100 fluorescence intensity (a.u.)
TAGCTATTATCCGTCCGAATCCGCTCTGTTTTCACCCCTACGGAGTCACCTAGTGCAG | 9590 fluorescence intensity (a.u.)
ATTCGATTCGCTATTTAATGTGGTGTGGTTTTCTTCTCCGCGGAGTCACCTAGTGCAG | 9140 fluorescence intensity (a.u.)
CCGTTCGCCACGTCCATCCGTTTTCTGTGCCATAGGCAGGCGGAGTCACCTAGTGCAG | 9340 fluorescence intensity (a.u.)
CGCTTCCCAACTATCAAATCTGCACCATCCATTCCTCATCCGGAGTCACCTAGTGCAG | 8420 fluorescence intensity (a.u.)
GTGCTTCTGAGAACTCAAGGCTTGTCATGGCTATCTTACTCGGAGTCACCTAGTGCAG | 9070 fluorescence intensity (a.u.)
TAGTATCATCAGTTCATCACCAACCTCTCTCTCGTCTTCTCGGAGTCACCTAGTGCAG | 8080 fluorescence intensity (a.u.)
TGGCACACTCCCTTGGCAACTCTTAATTACACGTGAGCTACGGAGTCACCTAGTGCAG | 8510 fluorescence intensity (a.u.)
CAGTTGTTATATGTACCCAAAGATTCGGCCATTGCATCCACGGAGTCACCTAGTGCAG | 8190 fluorescence intensity (a.u.)
ATATATATAATCTTCATGGTCATCTCGATCACTTGTTTGACGGAGTCACCTAGTGCAG | 9720 fluorescence intensity (a.u.)
CCTTGTTGGATCTCTCTGGCTCATGTTTCTGCTCAGCTCACGGAGTCACCTAGTGCAG | 9130 fluorescence intensity (a.u.)
TGATGTTTTTTTTACTGTGTTCTCTTGCAGAATAGCTCTCCGGAGTCACCTAGTGCAG | 12000 fluorescence intensity (a.u.)
GGCTCGCGGAGGGCGGGGCTGGGATGGTGGCGGATGGGAGCGGAGTCACCTAGTGCAG | 10800 fluorescence intensity (a.u.)
TTACCTCCATGCCACATCTCTCTCTCTAGCTTGTCTATGTCGGAGTCACCTAGTGCAG | 8090 fluorescence intensity (a.u.)
ACCCTGCACATTCTCGTTGCTATTGTGTACTTATTTTGGACGGAGTCACCTAGTGCAG | 9650 fluorescence intensity (a.u.)
CCGTCTCCGCCGCCCCGCCCTCCTCCTCGCCGGCGGCGCTCGGAGTCACCTAGTGCAG | 8250 fluorescence intensity (a.u.)
TCACACCTCATTTAATCCTAGCTATTTATCCATTTCCTTTCGGAGTCACCTAGTGCAG | 9890 fluorescence intensity (a.u.)
CTCCTGGCAACCCCATGCACTGCTTTTGCTGCCCTTAAGTCGGAGTCACCTAGTGCAG | 8620 fluorescence intensity (a.u.)
AGATCCAAACACGTCACAATATACCATCACTGCGGCCGCCCGGAGTCACCTAGTGCAG | 8210 fluorescence intensity (a.u.)
CGTGTGGTTGATTGTGTGTGCGAGCCGAATGCTGCCTACTCGGAGTCACCTAGTGCAG | 9260 fluorescence intensity (a.u.)

Reprinted from the results shown (two entries):
Sequence | binding signal
CCTTGTTGGATCTCTCTGGCTCATGTTTCTGCTCAGCTCACGGAGTCACCTAGTGCAG | 9130 fluorescence intensity (a.u.)
TGATGTTTTTTTTACTGTGTTCTCTTGCAGAATAGCTCTCCGGAGTCACCTAGTGCAG | 12000 fluorescence intensity (a.u.)

Additional records follow:

Sequence | binding signal
TCCGTGATTCAGTCATTCTCCCTGGTTCAGTCCATTCTCACGGAGTCACCTAGTGCAG | 10800 fluorescence intensity (a.u.)
TTATTGCTCGCAGTTCTTGCTGGGTGGTGGTGGTGGTTCACGGAGTCACCTAGTGCAG | 11300 fluorescence intensity (a.u.)
TCCTGTCCAGTCTCCACTCGCAAACCCTTCTCGCCGCCATCGGAGTCACCTAGTGCAG | 10400 fluorescence intensity (a.u.)
GTCACGCGCGCGCACGCACGCACGCGGCTTTGGGTTTTTTCGGAGTCACCTAGTGCAG | 8260 fluorescence intensity (a.u.)
CCCTTCTTATCCTCTTCTTGATGCTAATTTACCGTCTTTCCGGAGTCACCTAGTGCAG | 8740 fluorescence intensity (a.u.)
ATACTATTATATCGGGCCTCCACGGAGAGCGGGGACGGGGCGGAGTCACCTAGTGCAG | 8700 fluorescence intensity (a.u.)
GCCCCATCGCCGCCGGCCTCTCCTCCTCCTCCCACTATATCGGAGTCACCTAGTGCAG | 8690 fluorescence intensity (a.u.)
TCTCCTCCTGACAGCTAAGCACCAAACCATCACTTCACTCCGGAGTCACCTAGTGCAG | 8640 fluorescence intensity (a.u.)
CCCGTCGCTTGCCAGTTCACCCCAACATCCCAGAAATTCACGGAGTCACCTAGTGCAG | 8610 fluorescence intensity (a.u.)
TGTACGGCATGCGTCTGTTTGGTCTTTGGAGCCTCGACTGCGGAGTCACCTAGTGCAG | 8820 fluorescence intensity (a.u.)
TTCGTCACCTCGCCGGCTATAAAACCCGCTCGCTGCGCCTCGGAGTCACCTAGTGCAG | 11000 fluorescence intensity (a.u.)
GCTTTATCGTGCAAACACCTAAGCTGATAAAGGCAAAGGTCGGAGTCACCTAGTGCAG | 23200 fluorescence intensity (a.u.)
TCCGTCACATCGAACTTTCCTACACACAAATTTTCAATTTCGGAGTCACCTAGTGCAG | 9370 fluorescence intensity (a.u.)
TCCATTGTTTCCTCGGCATGCAATCTTTTTCACTAATTCTCGGAGTCACCTAGTGCAG | 11800 fluorescence intensity (a.u.)
TCAGTACTACCTTCTGCATCTTTGAGCTTCATCTGATTTTCGGAGTCACCTAGTGCAG | 8980 fluorescence intensity (a.u.)
CTGCCGCCGCTCCGTGTCATCGCGGCCGTCCATTTAGAACCGGAGTCACCTAGTGCAG | 8540 fluorescence intensity (a.u.)
ACCATCGTAGTATCGACTTGTACAATTGAATCTCACATTCCGGAGTCACCTAGTGCAG | 10200 fluorescence intensity (a.u.)
TGGGCTATGGGCATGTATTGAAGGGTCCTGCAGTTATAATCGGAGTCACCTAGTGCAG | 10100 fluorescence intensity (a.u.)
CTATAATTATTTGTCGACTAAATCTGCCTTTCATCTTTCTCGGAGTCACCTAGTGCAG | 8160 fluorescence intensity (a.u.)
AGTCTTTCATCATTTATCTTTTGGCTCATCAACCGCTACCCGGAGTCACCTAGTGCAG | 8990 fluorescence intensity (a.u.)
TTGGTTTCTGCCTCGCCAGCTTCAACTACTCTCCTCCAGGCGGAGTCACCTAGTGCAG | 9010 fluorescence intensity (a.u.)

Sequence | binding signal
AAGTCGGCCACCATCGCAGCAGCATGTAGTATTCATTTCTCGGAGTCACCTAGTGCAG | 8170 fluorescence intensity (a.u.)
AAGTTTGTGACAGCATATTATCATCCCAAGTTCCAGTATACGGAGTCACCTAGTGCAG | 8130 fluorescence intensity (a.u.)
GGTTTGTATCTTTCACTTTCTGTTCACTATGGATGTATTACGGAGTCACCTAGTGCAG | 10600 fluorescence intensity (a.u.)
CAAATCTACTACTACTACATATGAAGACCATGGGTTCATGCGGAGTCACCTAGTGCAG | 9470 fluorescence intensity (a.u.)
GCCTATCTTAATACTACCAGCTTTCCATCTCAAACCCAGTCGGAGTCACCTAGTGCAG | 11300 fluorescence intensity (a.u.)
GATCTTCTCGCAGCAGTTTCAGCACAGCTCTCCAGGTCTACGGAGTCACCTAGTGCAG | 10700 fluorescence intensity (a.u.)
CTCGGCCCATATATTTGTCTTGGCACAGGCGCTCAACTGGCGGAGTCACCTAGTGCAG | 8070 fluorescence intensity (a.u.)
GCAACACAACGCGCTCGCCTCGCCTCGCCCCGATCGGTGGCGGAGTCACCTAGTGCAG | 8670 fluorescence intensity (a.u.)
ACTTCACTCTCTCTCTCTCTCTCTCTCTCGTGCGCCGCGCCGGAGTCACCTAGTGCAG | 16300 fluorescence intensity (a.u.)
AGTTTTGTTTCTTTCCTGTTCACAGTTCACCTTTGCCTTTCGGAGTCACCTAGTGCAG | 12400 fluorescence intensity (a.u.)
GTCCCTAAATATTTGACGCCGTTGACTTTTTTAAACATGTCGGAGTCACCTAGTGCAG | 28500 fluorescence intensity (a.u.)
GATTATCCGGCCACGCCCTGCCACAATTCAGCTCGAATTCCGGAGTCACCTAGTGCAG | 11600 fluorescence intensity (a.u.)
TCCGTTTCGAAATGCTTGACGCCGTTGACTTTTTTAAACACGGAGTCACCTAGTGCAG | 19400 fluorescence intensity (a.u.)
GGTATAGGGGTCGGTTGTTTTTATTGGTGCCGACCAATAGCGGAGTCACCTAGTGCAG | 8420 fluorescence intensity (a.u.)
GTTCCATATATTTTAGCACATCTGTAGCACACAACACATACGGAGTCACCTAGTGCAG | 11300 fluorescence intensity (a.u.)
TACATATTGATCTATCTTGCCAATTTTTTTGAAAATTTTTCGGAGTCACCTAGTGCAG | 9440 fluorescence intensity (a.u.)
GCCGTCCTGGCGTACCTGTCCGTGCCCAGCCTCATCGAGCCGGAGTCACCTAGTGCAG | 8510 fluorescence intensity (a.u.)
CAATCTCCATAGGTTGGTCTCACACGCTCCTCATCCTCTCCGGAGTCACCTAGTGCAG | 11000 fluorescence intensity (a.u.)
ATATTATAATTTGTTTTTATTTTTTCCAGTCAAACTTCTTCGGAGTCACCTAGTGCAG | 8220 fluorescence intensity (a.u.)
TCCTCTGTGTCCAAAAGTTGCAACTCCTCCACCCTTTCTTCGGAGTCACCTAGTGCAG | 8730 fluorescence intensity (a.u.)
CTCTTGCCGCGCGCATCAAACGCGATACATCGATCTCCTCCGGAGTCACCTAGTGCAG | 8090 fluorescence intensity (a.u.)

4 records drawn at random from the list so far:
Sequence | binding signal
TTACCTCCATGCCACATCTCTCTCTCTAGCTTGTCTATGTCGGAGTCACCTAGTGCAG | 8090 fluorescence intensity (a.u.)
TCCTCTGTGTCCAAAAGTTGCAACTCCTCCACCCTTTCTTCGGAGTCACCTAGTGCAG | 8730 fluorescence intensity (a.u.)
TAGTATCATCAGTTCATCACCAACCTCTCTCTCGTCTTCTCGGAGTCACCTAGTGCAG | 8080 fluorescence intensity (a.u.)
CCGTTCGCCACGTCCATCCGTTTTCTGTGCCATAGGCAGGCGGAGTCACCTAGTGCAG | 9340 fluorescence intensity (a.u.)

The list goes on:

Sequence | binding signal
GCTCTTGCTAATTTTTCTCCAAAATCTCTATAGAATTTTCCGGAGTCACCTAGTGCAG | 9290 fluorescence intensity (a.u.)
TTTTTTGGCCAGCGGTTGTTGTTTGCCTTTTTTTTTTTTTCGGAGTCACCTAGTGCAG | 9500 fluorescence intensity (a.u.)
GACGAATGGTCAAACATTGGTTAAAAAGTCAACGGCGTTACGGAGTCACCTAGTGCAG | 10100 fluorescence intensity (a.u.)
GCGCCCCAACTTCCAACTCACAGTTCCTCCTCGTCATTCACGGAGTCACCTAGTGCAG | 8280 fluorescence intensity (a.u.)
GACTATTCTTGGGGTATAACCTTCTTATATTATTTTAATTCGGAGTCACCTAGTGCAG | 9920 fluorescence intensity (a.u.)
CATCGGGTTCATGTTCCTCGTCAGTTTTGTTGGGCTATTTCGGAGTCACCTAGTGCAG | 8620 fluorescence intensity (a.u.)
TTCGGTTGGGTGGAGGAAGCGCGGGTGAAAAAGGTGGGGACGGAGTCACCTAGTGCAG | 10600 fluorescence intensity (a.u.)
TTCTGTCTTCTAGTTCATTTTCCAGATTCTACATCTATAGCGGAGTCACCTAGTGCAG | 8180 fluorescence intensity (a.u.)
TGTGTCTTGATTAATTTTCTGTGAGCTCTTCATCTGGTCTCGGAGTCACCTAGTGCAG | 9200 fluorescence intensity (a.u.)
CAGCTGGTCACCCGTCTGCTATTTAAGCGATCTCCCGCACCGGAGTCACCTAGTGCAG | 8910 fluorescence intensity (a.u.)
TGACCTATTTGATGAGCCTACTTGCCAATTATCGTAGCTTCGGAGTCACCTAGTGCAG | 8320 fluorescence intensity (a.u.)
GACATATCATATCTGGTGTTGCCTTTCAGGGACGAAATTTCGGAGTCACCTAGTGCAG | 8280 fluorescence intensity (a.u.)
GTTTATTTTCTTCGGAATTTCAGTTAGCATGTATTATTTTCGGAGTCACCTAGTGCAG | 12100 fluorescence intensity (a.u.)
CCCACCACCACCACCACCACCATCACCTCATCTATCCGCGCGGAGTCACCTAGTGCAG | 10300 fluorescence intensity (a.u.)
GCCTCTCCTCACCCACTCCGCTCTCCGCTCCATTAAACCCCGGAGTCACCTAGTGCAG | 8450 fluorescence intensity (a.u.)
GTTCCTTACTCAATTCTCCATCACCATCCCATCAAAATTCCGGAGTCACCTAGTGCAG | 8990 fluorescence intensity (a.u.)
TTGTTAAGTCTAAGGTCTCCGTCGTTTGGCTTATTTCCTACGGAGTCACCTAGTGCAG | 8970 fluorescence intensity (a.u.)
GAATTTGGCTAGGTTGTACTCTTTTTTTCCTTGCATAAGTCGGAGTCACCTAGTGCAG | 8720 fluorescence intensity (a.u.)
AGACCCATTTCGTCCATGCATTGATACTAAACAATCCAACCGGAGTCACCTAGTGCAG | 8140 fluorescence intensity (a.u.)
GCAGCAAACGACTACTTTCTTTCTATGCGTAACTTTTTTTCGGAGTCACCTAGTGCAG | 8330 fluorescence intensity (a.u.)
TTAGTTCAGCGTTTGCCCTGTATTTATGTTGGCATGCCACCGGAGTCACCTAGTGCAG | 8220 fluorescence intensity (a.u.)
